Measured values as given in US20250197453A1, “COMPOSITION COMPRISING TAT PEPTIDE VARIANT AS ACTIVE INGREDIENT FOR PREVENTING OR TREATING METABOLIC DISEASES” (priority 2021, published 2025).
These are yes or no findings as the source states them, for the method shown. Some entries that bind do so weakly or less than the wild type.

Chains of the proteins cited; added tags and fusions are not shown. Residues count along the entry.
UniProt O60563, residues 1-266: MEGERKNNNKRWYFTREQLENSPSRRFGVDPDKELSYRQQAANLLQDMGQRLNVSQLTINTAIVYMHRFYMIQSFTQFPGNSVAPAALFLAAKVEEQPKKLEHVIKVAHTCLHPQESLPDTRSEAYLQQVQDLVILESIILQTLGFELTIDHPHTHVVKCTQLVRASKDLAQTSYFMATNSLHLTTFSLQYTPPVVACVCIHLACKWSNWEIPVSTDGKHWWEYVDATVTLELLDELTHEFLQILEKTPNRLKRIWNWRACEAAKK
UniProt P04608, residues 1-72: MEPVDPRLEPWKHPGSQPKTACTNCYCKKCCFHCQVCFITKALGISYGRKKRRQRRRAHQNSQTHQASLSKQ

Tests used:
[1] = molecular target: Cyclin T1 (UniProt O60563); assay: crystal structure of the TAT-Cyclin T1-CDK9 complex, X-ray diffraction (figure legend)
[2] = molecular target: Cyclin T1 (UniProt O60563); assay: analysis of crystal structure of the TAT-Cyclin T1-CDK9 complex

For “TAT (HIV-1 transcriptional activator protein, TAT peptide 72 a.a.) (from UniProt P04608 1-72)”, which binding [1] is on record?
The binding was “binds”.

What about the binding [2] of the same sequence?
Its binding is “binds”.
